Patent US20190343860A1 (Saint Louis University, priority 2016, published 2019)

Tested on: CHO cells
Assay: Raman microscopy of intracellular drug location in CHO cells
Type: cell-based

CNC(=O)[C@@]12C[C@@H]1[C@@H](n1cnc3c(NCc4cccc(Cl)c4)nc(C#Cc4ccc(F)c(F)c4)nc31)[C@H](O)[C@@H]2O [MRS5698]
Intracellular accumulation (Raman, ~2220 cm−1 region) (0.2 μM): appears to be enriched in a subset of the intracellular space | Localization relative to mitochondrial cytochrome c signal (750 cm−1) (0.25 μM): localizes in intracellular regions corresponding to the mitochondrial cytochrome c signal

CNC(=O)[C@@]12C[C@@H]1[C@@H](n1cnc3c(NC)nc(C#Cc4ccc(Cl)s4)nc31)[C@H](O)[C@@H]2O [MRS5980]
Intracellular accumulation (Raman, ~2220 cm−1 region) (1 μM): appears to be enriched in a subset of the intracellular space
